Test results: PubChem BioAssay AID1259415 (National Center for Advancing Translational Sciences (NCATS), 2018)
Values joined by “and” are separate entries in the source; they are usually repeats but may differ in a detail not shown here. Equal entries are not always repeated. Among all 410,000 compounds or so, about 18,000 (4.4%) were called active. Inconclusive results, whose numbers are uncertain, are shown with a selection of clear calls. Cut-off read from the data, not from the text of the source: active = activity change below about -60%; inconclusive = no clear call, values can overlap the other calls; inactive = above about -39%.

Experiment: qHTS Assay for inhibitors of the human cytomegalovirus (HCMV)
Settings: HFF cells, HCMV-luciferase reporter, 72 h; at 57.5 µM; active compounds read low
Outline: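 Inhibition of viral replication was scored as loss of reporter luminescence in HFFs infected with HCMV-luciferase (MOI 1 PFU/cell) for 72 h; compounds tested at 2 doses, normalized to buffer and Salinomycin controls.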
% is set by controls: 0 for no effect and ±100 for the full control effect.

Row | Structure (SMILES) | activity change, negative = inhibition
1 | CN(c1cccc(NC(=O)Nc2ccc(Cl)cc2)c1)S(C)(=O)=O | active: -81.1%
2 | O=C1N=C(N2CCOCC2)S/C1=C\c1ccccc1OS(=O)(=O)c1ccccc1 | inconclusive: -55.1%
3 | CC1=CC(=O)C=CC1=Nc1ccc(N(C)C)cc1 | inconclusive: -40.5%
4 | Cc1ccc(-n2nc3c(=O)n(C(C)C(=O)NCc4ccc5c(c4)OCO5)nc(C)c3c2C)cc1 (centres undefined) | active: -83.4%
5 | CCCc1sc(N)nc1-c1ccc(Cl)cc1 | inconclusive: -44.3%
6 | Cc1cccc(OCC(=O)Nc2nnn(C)n2)c1C | active: -102%
7 | COc1cc(OC)c(C(=O)N(CCc2ccccc2)Cc2ccccc2)cc1OC | inactive: -14.8%
8 | O=C1CCC/C1=C\Nc1ccc(Cl)c([N+](=O)[O-])c1 | inactive: -10%
9 | CCCCCCn1ccc(=N)cc1 | active: -79.7%
10 | O=C(c1ccccc1Cl)N1CCN(S(=O)(=O)N2CCCCC2)CC1 | inconclusive: -54.9%
11 | Cc1cccc(N2CCN(C(=O)c3cc4ccc5cccnc5c4[nH]3)CC2C)c1 (centres undefined) | active: -108%
12 | O=C(N/N=C/c1ccc([N+](=O)[O-])o1)C(O)c1ccccc1 (centres undefined) | active: -60.4%
13 | CC(=O)N1N=C(c2ccccc2)CC1c1ccccc1 (centres undefined) | inactive: 38.6%
14 | NNc1nc2sc3c(c2c(=O)n1-c1ccccc1)CCCC3 | inconclusive: -50.1%
15 | Cc1ccc(/C=N/NC(=O)CNC(=O)c2ccc(S(=O)(=O)N(C)C)cc2)cc1 | inconclusive: -40.7%
16 | CCc1ccccc1N(CC)C(=O)C1CCN(c2ncnc3c2nc2n3CCCCC2)CC1 | inconclusive: -43%
17 | c1nnc(NC2=NCCCCC2)s1 | inactive: 46.9%
18 | COc1cccc(NC(=O)C2CCN(c3cnccn3)CC2)c1 | inactive: -7.72%
19 | Cc1ccc(C)c(S(=O)(=O)N2CCCOC2CNC(=O)C(=O)NCCC2=CCCCC2)c1 (centres undefined) | active: -66.9%
20 | CCOC(=O)C(=Cc1cc(=O)c(OC)co1)C(=O)OCC | active: -84.3%
21 | CN(C)CCC(c1ccccc1)c1ccccn1 (centres undefined) | inactive: -32.7% and inactive: -25% and inactive: -8.63%
22 | O=C(Cc1ccc(Cl)cc1)Nc1ccc2oc(-c3ccccc3F)nc2c1 | inconclusive: -42.2%

Row | Structure (SMILES) | activity change, negative = inhibition
23 | CCO[C@H]1OC(C(=O)N2CCN(C)CC2)=C[C@@H](C)[C@@H]1CCCO | active: -96.8%
24 | COc1ccc(-c2noc(CSc3nc4ccccc4[nH]3)n2)cc1 | inconclusive: -47.4%
25 | O=C(c1ccccc1Nc1ccc(SC(F)F)cc1)N1CCCCCC1 | active: -101%
26 | O=C(CSc1nnc(-c2ccccc2O)o1)Oc1ccc(OCc2ccccc2)cc1 | inconclusive: -46.1%
27 | CN(C)S(=O)(=O)c1cccc(NC(=O)c2cc([N+](=O)[O-])ccc2N2CCCCC2)c1 | inconclusive: -40.7%
28 | COc1cc(NC(=O)CCc2nnc3ccc(N4CCC(C)CC4)nn23)cc(OC)c1 | inactive: -2.3%
29 | O=C(NC1CCCCC1)C(c1ccco1)N(C(=O)c1csnn1)c1ccc(Cl)cc1 (centres undefined) | inconclusive: -41.6%
30 | Clc1ccc(Cn2cnc3ccccc32)cc1 | active: -70.3%
31 | CSc1nc(Cl)c(Cc2ccc(OC(C)C)cc2)c(N2CCOCC2)n1 | inconclusive: -55.3%
32 | CCOc1ccc(Br)cc1S(=O)(=O)Nc1ccc(C(=O)OCC(=O)Nc2ccc(C#N)cc2)cc1 | inactive: -21%
33 | Cn1nc(N2CCN(S(=O)(=O)c3ccccc3)CC2)c(=O)n(C)c1=O | inconclusive: -42.1%
34 | Cc1ccc(N2CC(C)Cn3c2nc2c3c(=O)[nH]c(=O)n2C)cc1C (centres undefined) | inconclusive: -47.7%
35 | COc1ccc(C(C(=O)NC2CCCC2)n2c(CSCCOc3ccccc3)nc3ccccc32)cc1 (centres undefined) | inconclusive: -43.9%
36 | O=C(Nc1ccc(Oc2ccc(Br)cc2)cc1)C1=CC=CN2CCS(=O)(=O)N=C12 | inconclusive: -50.5%
37 | Cc1c(C(=O)N2CCC3(CC2)OCCO3)sc2ncnc(N(C)c3ccccc3)c12 | inconclusive: -47.4%
38 | CN(C)C(=O)CSc1ccc(S(=O)(=O)N2CCCC2)cn1 | inactive: 3.62%
39 | CCOc1ccc(-c2cn(-c3ccccc3OC)c(=S)[nH]2)cc1 | active: -80.5%
40 | Cc1cc(C(=O)CSc2ccc(F)cc2)cc(C)c1OC(=S)N(C)C | active: -92.2%
41 | Cc1ccc2c(c1)c(=O)c1c3n2CCN(CC#N)C3CC1 (centres undefined) | inconclusive: -53.5%
42 | CCOc1ccc(C(=O)COC(=O)c2nn(CC)c(=O)c3ccccc23)cc1 | inconclusive: -47.6%
43 | CCC(=O)N(CC)C1=C(O)c2ccccc2C(=O)C1=O | active: -105%
44 | CCn1cc(SCC(=O)NCC2CCCO2)c2ccccc21 (centres undefined) | inactive: -7%

Copied from the list.
`COc1ccc(C(C(=O)NC2CCCC2)n2c(CSCCOc3ccccc3)nc3ccccc32)cc1` (centres undefined) – activity change, negative = inhibition: inconclusive: -43.9%
`Cc1ccc(/C=N/NC(=O)CNC(=O)c2ccc(S(=O)(=O)N(C)C)cc2)cc1` – activity change, negative = inhibition: inconclusive: -40.7%
`O=C(CSc1nnc(-c2ccccc2O)o1)Oc1ccc(OCc2ccccc2)cc1` – activity change, negative = inhibition: inconclusive: -46.1%
